Results published in PubChem BioAssay AID1688 (National Center for Advancing Translational Sciences (NCATS), 2009).
Screen size: about 220,000 compounds; about 2,400 (1.1%) were called active. Inconclusive means that the source gave no clear call. Such entries were picked first, then a sample of the others. Calls follow the shape of the dose curve; as a rule, active = well fitted inhibition curve with a large enough effect; inconclusive = small, poorly fitted or top-dose-only effect, or effect the other way; inactive = no such curve, though single readings can be large or run the other way. Where the call is inconclusive, the potency comes from a doubtful curve fit.

Assay: qHTS Multiplex Assay to Identify Dual Action Probes in a Cell Model of Huntington: Aggregate Formation (GFP); also: nearly all actives have a fitted effect of over 60% in size
Conditions: PC12 HttQ103-GFP aggregates, Acumen cytometry, 40 h; activity change, negative = inhibition: at 46.1 µM (top of the series) unless noted
In short: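 Read-out: GFP aggregate count by laser scanning cytometer (488 nm excitation, 500-530 nm emission, 1–25 µm objects >6 SD above background). Cells: PC12, inducible HTTex1-Q103-GFP, 100 nM tebufenozide; compounds titrated.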
% is scaled to controls: 0 for no effect and ±100 for the full control effect; potency is read from the fitted curve at half-maximal effect.

| SMILES | Potency | activity change, negative = inhibition |
| --- | --- | --- |
| Cc1ccccc1OCC(=O)Nc1sc(C(=O)Nc2cccc(C)c2C)c(C)c1C#N | inactive | – |
| COc1ccccc1OCCNC1CCCC1 | inactive | – |
| CCN(CC)c1ccc(N=Nc2ncn[nH]2)cc1 | inactive | – |
| O=C(COC(=O)c1ccccc1Nc1ccc(SC(F)F)cc1)NCc1ccco1 | inactive | – |
| O=C(OCc1ccco1)c1cccnc1 | inactive | – |
| N#Cc1ccccc1Sc1ccccc1C(=O)Nc1ccccc1 | inactive | – |
| C/C(=N\OCc1ccccc1C#N)c1cc2ccccc2o1 | inconclusive: 35.5 µM [inhibitor, single point] | – |
| COc1ccc(C2c3sc(=O)[nH]c3SCC2C(N)=O)cc1 (stereo unspecified) | – | inactive: 21.2% [at 9.22 µM] |
| Cc1ccc(NS(=O)(=O)c2cccc(C(=O)NCCc3c[nH]c4ccccc34)c2)c(C)c1 | inconclusive: 5.62 µM [inhibitor, single point] | – |
| O=C(CSc1ccccc1)Nc1ccncc1 | inconclusive: 0.562 µM [inhibitor, partial curve, poor fit] | – |
| Cc1ccccc1CSCCNC(=O)Nc1ccccc1 | inconclusive: 31.6 µM [inhibitor, single point] | – |
| O=C(Nc1cccn(Cc2cccc(F)c2)c1=O)NC1CCCCC1 | – | inactive: -0.301% [at 9.22 µM] |
| c1nc(NCC2(N3CCOCC3)CCCCC2)c2ccsc2n1 | inactive | – |
| O=C(NNC(=S)Nc1ccccc1)c1ccncc1 | inactive | – |
| Cc1ccc(S(=O)(=O)N(CCC(=O)Nc2ccc(OC(F)(F)F)cc2)c2ccccc2)cc1 | inconclusive: 35.5 µM [inhibitor, single point] | – |
| O=c1c2ccccc2n2c(-c3cccc(F)c3)nnc2n1Cc1ccccc1 | inconclusive: 3.55 µM [inhibitor, single point] | – |
| O=C(Nc1ccc(-c2ccc([N+](=O)[O-])cc2)cc1)c1ccccc1F | inconclusive: 35.5 µM [activator, single point] | – |
| COc1ccccc1NS(=O)(=O)c1cc(NC(=S)NCCN2CCOCC2)ccc1N1CCOCC1 | inconclusive: 11.2 µM [activator, partial curve] | – |
| Cc1c(Cc2ccccc2)sc(NC(=O)C(C)(C)C)c1C(N)=O | inconclusive: 35.5 µM [inhibitor, single point] | – |
| CCCCCCCCOC(=O)C(NC(=O)CCC(=O)Nc1ccc(S(N)(=O)=O)cc1)C(O)c1ccccc1 (stereo unspecified) | inconclusive: 0.501 µM [inhibitor, full curve, poor fit] | – |
| O=C1N=C(N2CCOCC2)S/C1=C\c1ccc(-c2ccccc2Cl)o1 | inconclusive: 5.62 µM [inhibitor, single point] | – |
| Cc1ccc(CNC(=O)CCCOc2cc(=O)n(C)c3ccccc23)o1 | inconclusive: 11.2 µM [activator, partial curve] | – |
| CC(=O)c1c(C)[nH]c(C(=O)OCc2ccc(Br)cc2)c1C | inconclusive: 35.5 µM [inhibitor, single point] | – |

| SMILES | Potency | activity change, negative = inhibition |
| --- | --- | --- |
| Cc1ccc(OC(F)F)c(NC(=O)Nc2cccc(C(F)(F)F)c2)c1 | inconclusive: 2.82 µM [inhibitor, full curve] | – |
| Fc1cccc2sc(Nc3nnc(-c4ccccc4)o3)nc12 | active: 11.2 µM | – |
| COc1ccc(C(=O)c2ccc(N(C)C)cc2)c2ccccc12 | inconclusive: 2.51 µM [inhibitor, partial curve] | – |
| O=C(COC(=O)c1ccc([N+](=O)[O-])o1)NC1CCS(=O)(=O)C1 (stereo unspecified) | inconclusive: 35.5 µM [inhibitor, single point] | – |
| COc1cc(C(=O)Nc2ccc(N3CCOCC3)cc2)ccc1OCc1c(C)noc1C | inconclusive: 5.01 µM [inhibitor, single point] | – |
| CN(C)c1ccc(N=Nc2ccccc2C(=O)OCC(=O)Nc2ccccc2C(F)(F)F)cc1 | inconclusive: 11.2 µM [inhibitor, partial curve] | – |
| Cc1ccc(C)n1-c1sc2c(c1C#N)CCCC2 | inconclusive: 11.2 µM [activator, partial curve] | – |
| Cc1ccc(C)n1-c1ccc(-n2cnnn2)cc1 | inconclusive: 14.1 µM [activator, single point] | – |
| COc1ccc2cc3c(N)nn(C(=O)Cc4ccc(Cl)cc4)c3nc2c1 | active: 7.94 µM | – |
| CCCc1[nH]n(-c2nc3ccccc3s2)c(=O)c1C=NCC(C)C | inconclusive: 11.2 µM [inhibitor, single point] | – |
| c1cc2c3c(cccc3c1)NC1(CCCCCC1)N2 | inconclusive: 1.41 µM [activator, partial curve] | – |
| CS(=O)(=O)Oc1ccc(/C=N/NC(=O)c2ccncc2)cc1 | inconclusive: 12.6 µM [activator, single point] | – |
| Cc1sc(NC(=O)c2ccco2)c(CN2CCN(c3ccccc3)CC2)c1C | inconclusive: 11.2 µM [inhibitor, single point] | – |
| CC1(C)Cc2c(sc3nc(-c4cc5ccccc5o4)n(N)c(=O)c23)CO1 | inconclusive: 12.6 µM [inhibitor, partial curve] | – |
| CCOC(=O)c1c(NC(=O)C2C3C=CC(CC3)C2C(=O)O)sc(C)c1CC (stereo unspecified) | inactive | – |
| CCOC(=O)c1sc(NC(=O)Nc2ccc(Cl)cc2)cc1C | active: 22.4 µM | – |
| O=C(COc1ccc(Cl)cc1Cl)N1CCCC1 | inconclusive: 1.26 µM [inhibitor, single point] | – |
| CC(C)CNS(=O)(=O)c1ccc2c(c1)OCCO2 | inactive | – |
| Cc1c2c(nc3nc4ccccc4n13)CC(C)(C)CC2=O | inconclusive: 3.98 µM [inhibitor, single point] | – |
| COc1cc(/C=c2\sc3nc(-c4ccncc4)nn3c2=O)ccc1OC(C)=O | inconclusive: 22.4 µM [activator, single point] | – |
| COCCn1nnnc1CN(CCCN1CCOCC1)Cc1cc2c(C)ccc(C)c2[nH]c1=O | inconclusive: 35.5 µM [activator, single point] | – |
| CCOc1ccccc1OCCCCCc1c(C)n[nH]c1C | inconclusive: 10 µM [inhibitor, partial curve] | – |
| O=C1NC2(CCCCC2)C(=O)N1/N=C/c1ccc(O)cc1O | inconclusive: 25.1 µM [inhibitor, single point] | – |

Complete entries, looked up by structure.
`Cc1c2c(nc3nc4ccccc4n13)CC(C)(C)CC2=O` is entered as Potency: inconclusive: 3.98 µM [inhibitor, single point]
`COc1cc(/C=c2\sc3nc(-c4ccncc4)nn3c2=O)ccc1OC(C)=O` is entered as Potency: inconclusive: 22.4 µM [activator, single point]
`Fc1cccc2sc(Nc3nnc(-c4ccccc4)o3)nc12` is entered as Potency: active: 11.2 µM
`CN(C)c1ccc(N=Nc2ccccc2C(=O)OCC(=O)Nc2ccccc2C(F)(F)F)cc1` is entered as Potency: inconclusive: 11.2 µM [inhibitor, partial curve]
